Drawing on PMC6617459, this text covers binding for one molecule.

These are yes or no findings as the source states them, for the method shown. In cells and extracts the contact can be indirect. Some binding calls cover weakened binding; strength is not graded here. Tags and fused reporters may be left off the sequences shown.

In the assay the target is T1, endogenous E3 ligase TMEM129 (human (endogenous in HeLa)) (UniProt A0AVI4).
T1 sequence: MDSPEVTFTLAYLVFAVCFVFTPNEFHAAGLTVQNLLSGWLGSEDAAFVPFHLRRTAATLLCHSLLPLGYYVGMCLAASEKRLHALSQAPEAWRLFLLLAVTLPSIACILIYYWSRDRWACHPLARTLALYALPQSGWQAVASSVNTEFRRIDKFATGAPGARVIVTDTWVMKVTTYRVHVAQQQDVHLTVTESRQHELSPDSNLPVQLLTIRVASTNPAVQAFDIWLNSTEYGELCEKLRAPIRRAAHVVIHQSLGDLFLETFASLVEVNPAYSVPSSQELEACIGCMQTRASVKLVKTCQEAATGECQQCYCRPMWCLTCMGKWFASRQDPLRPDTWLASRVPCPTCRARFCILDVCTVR
The experiment in a line: co-IP; HeLa^FcRn cells without US11, transfected with Derlin-1 plasmid for 48 h; anti-FLAG or anti-TMEM129 antibody; western blot. (In general: A western blot detects proteins with antibodies after separation by electrophoresis.)

B1: Myc-tagged Derlin-1 (protein, UniProt Q9BUN8 1-251)
chain: MSDIGDWFRSIPAITRYWFAATVAVPLVGKLGLISPAYLFLWPEAFLYRFQIWRPITATFYFPVGPGTGFLYLVNLYFLYQYSTRLETGAFDGRPADYLFMLLFNWICIVITGLAMDMQLLMIPLIMSVLYVWAQLNRDMIVSFWFGTRFKACYLPWVILGFNYIIGGSVINELIGNLVGHLYFFLMFRYPMDLGGRNFLSTPQFLYRWLPSRRGGVSGFGVPPASMRRAADQNGGGGRHNWGQGFRLGDQ
In the case of B1, the binding result was “binds”.
